The structures appear in SMILES notation. The list is a part of this screen's results and no random one: it gathers tests that were run many times, whatever their T/C, doses with no T/C, and many T/C values between a quarter and a half above the control. Further doses and runs are listed elsewhere. T/C: endpoint of the treated group in % of that of the vehicle group. Some entries give survivors of the animals treated and no T/C: the source files T/C as zero there, which appears to mark a toxic dose or a test without result, not a measured value. Some doses without a T/C left all or most animals alive at the check, yet need not have been tolerated: survival well below the control is almost never listed, so the zero probably covers shortened survival too. Counts of survivors are from the toxicity check (mostly the fifth day) where no day follows; animals may have died later. Schedules are NCI's codes, read here as Q, the interval in days (D) or hours (H), X, the number of doses. Some entries hold several experiments; the results are listed from low to high. For survival time, this PubChem deposit counts one and a half times the control or more as active, and values a quarter to a half above the control carry no call in these data; other NCI protocols may use other cut-offs. Some T/C values are followed by the survivors on the day toxicity was checked, most often the fifth; without a count, all were alive then.

The assay deals with CD2F1 mice, P388/DHAQ leukemia ip, median survival T/C. The experiment in a line: NCI In Vivo Anticancer Drug Screen. Data for tumor model P388 Leukemia resistant to Dihydroxy Anthracenedione; NSC 299195 (intraperitoneal) in CD2F1 (CDF1) mice. The note with it: T/C endpoint: median survival time, higher T/C = longer survival. How it is done:
The antitumor activity of compounds was measured in mice bearing transplantable tumors. Survival or tumor size were measured and the results are expressed as the measurement made in the treated group (T) divided by the measurement made in the vehicle treated control group (C). The tumor model used in this assay is P388 Leukemia resistant to Dihydroxy Anthracenedione; NSC 299195 (intraperitoneal) in CD2F1 (CDF1) mice

The mark [1] stands for this setting: dose: 180.0 mg/kg/injection, schedule: Q04DX003 (ip), vehicle: saline.
Where [2] appears, read: dose: 300.0 mg/kg/injection, schedule: Q04DX003 (ip), vehicle: saline.
The mark [3] stands for this setting: dose: 30.0 mg/kg/injection, schedule: Q04DX003 (ip), vehicle: saline.
Where [4] appears, read: dose: 150.0 mg/kg/injection, schedule: Q01DX005 (ip), vehicle: saline.

With `C[n+]1ccc(Nc2ccc(NC(=O)c3ccc(Nc4cc[n+](C)c5ccc(N)cc45)cc3)cc2)cc1`, the T/C reads like this: (dose: 9.0 mg/kg/injection, schedule: Q04DX003 (ip), vehicle: water) 126 % of control; (dose: 15.0 mg/kg/injection, schedule: Q04DX003 (ip), vehicle: water) 135 % of control.

For `O=C(Nc1ccc(C2=NCCN2)cc1)c1ccc(C(=O)Nc2ccc(C3=NCCN3)cc2)c(Cl)c1`, the survivor count (dose: 75.0 mg/kg/injection, schedule: Q04DX003 (ip), vehicle: saline with Tween-80) was 3 of 8 and the survivor count (dose: 125.0 mg/kg/injection, schedule: Q04DX003 (ip), vehicle: saline with Tween-80) is 0 of 8.

For the compound `COc1cccc2c1C(=O)c1c(O)c3c(c(O)c1C2=O)C[C@@](O)(C(=O)CO)C[C@@H]3OC1CC(N)C(O)C(C)O1` (stereo partly drawn), the T/C is, setting by setting: (dose: 0.97 mg/kg/injection, schedule: Q04DX003 (ip), vehicle: saline, evaluated on day 40) 125 % of control; (dose: 0.97 mg/kg/injection, schedule: Q04DX003 (ip), vehicle: saline, evaluated on day 45) 110, 119, 136 % of control; (dose: 1.62 mg/kg/injection, schedule: Q04DX002 (ip), vehicle: saline, evaluated on day 6) 126 % of control; (dose: 1.62 mg/kg/injection, schedule: Q04DX002 (ip), vehicle: saline, evaluated on day 45) 130 % of control; (dose: 1.62 mg/kg/injection, schedule: Q04DX003 (ip), vehicle: saline, evaluated on day 40) 103 % of control; (dose: 1.62 mg/kg/injection, schedule: Q04DX003 (ip), vehicle: saline, evaluated on day 45) 127, 128, 155 % of control. The T/C reads like this: (dose: 2.16 mg/kg/injection, schedule: Q04DX002 (ip), vehicle: saline) 129 % of control; (dose: 2.7 mg/kg/injection, schedule: Q04DX002 (ip), vehicle: saline) 128 % of control; (dose: 2.7 mg/kg/injection, schedule: Q04DX003 (ip), vehicle: saline, evaluated on day 40) 120 % of control; (dose: 2.7 mg/kg/injection, schedule: Q04DX003 (ip), vehicle: saline, evaluated on day 45) 126, 128, 158 % of control; (dose: 3.6 mg/kg/injection, schedule: Q04DX002 (ip), vehicle: saline) 126 % of control; (dose: 4.5 mg/kg/injection, schedule: Q04DX002 (ip), vehicle: saline, evaluated on day 6) 130 % of control. Moreover, the T/C is 130 % of control (dose: 4.5 mg/kg/injection, schedule: Q04DX002 (ip), vehicle: saline, evaluated on day 45); 128 % of control (dose: 4.5 mg/kg/injection, schedule: Q04DX003 (ip), vehicle: saline, evaluated on day 40); 139, 146, 169 % of control (dose: 4.5 mg/kg/injection, schedule: Q04DX003 (ip), vehicle: saline, evaluated on day 45); 129 % of control (dose: 6.0 mg/kg/injection, schedule: Q04DX002 (ip), vehicle: saline); 130 % of control (dose: 7.5 mg/kg/injection, schedule: Q04DX002 (ip), vehicle: saline, evaluated on day 6); 142 % of control (dose: 7.5 mg/kg/injection, schedule: Q04DX002 (ip), vehicle: saline, evaluated on day 45). Besides, the T/C (dose: 7.5 mg/kg/injection, schedule: Q04DX003 (ip), vehicle: saline, evaluated on day 40) is 125 % of control; the T/C (dose: 7.5 mg/kg/injection, schedule: Q04DX003 (ip), vehicle: saline, evaluated on day 45) was 120 and 121 % of control. Besides, under “dose: 7.5 mg/kg/injection, schedule: Q04DX003 (ip), vehicle: saline”, the survivor count is 8 of 8.

Turning to `CN(Cc1cnc2nc(N)nc(N)c2n1)c1ccc(C(=O)N[C@@H](CCC(=O)O)C(=O)O)cc1`, the T/C runs as follows: (dose: 5.18 mg/kg/injection, schedule: Q04DX003 (ip), vehicle: sodium bicarbonate) 147 % of control; (dose: 40.0 mg/kg/injection, schedule: Q04DX003 (ip), vehicle: sodium bicarbonate) 143 % of control.

As to `O=NN(CCCl)C(=O)NCCCl`, the T/C was 147 % of control (dose: 3.24 mg/kg/injection, schedule: Q04DX003 (ip), vehicle: saline + alcohol); 128 % of control (dose: 3.89 mg/kg/injection, schedule: Q04DX002 (ip), vehicle: saline + alcohol); 146 % of control (dose: 6.48 mg/kg/injection, schedule: Q04DX002 (ip), vehicle: saline + alcohol). In addition, the survivor count (dose: 50.0 mg/kg/injection, schedule: Q04DX002 (ip), vehicle: saline + alcohol) is listed as 8 of 8.

Regarding `O=P1(N(CCCl)CCCl)NCCCO1` (stereo not drawn), the T/C (dose: 25.9 mg/kg/injection, schedule: Q04DX002 (ip), vehicle: saline) is 143 % of control and the T/C (dose: 250.0 mg/kg/injection, schedule: Q04DX002 (ip), vehicle: saline) is 145 % of control. Moreover, the survivor count is recorded as 8 of 8 under setting [1] and 7 of 8 under setting [2].

With `CC(=O)N(C)c1ccc(Nc2cc(C)[nH]c3ccc4ncnc4c23)cc1`, the T/C (dose: 90.0 mg/kg/injection, schedule: Q04DX002 (ip), vehicle: saline) is 126 % of control. Also, the survivor count (dose: 150.0 mg/kg/injection, schedule: Q04DX002 (ip), vehicle: saline) is 3 of 8.

For the compound `CC[C@](O)(C(=O)O)c1cc2n(c(=O)c1CO)Cc1cc3ccccc3nc1-2`, the T/C was 128 % of control (dose: 10.8 mg/kg/injection, schedule: Q04DX003 (ip), vehicle: saline); 126 % of control (dose: 13.0 mg/kg/injection, schedule: Q04DX003 (ip), vehicle: saline); 133 and 135 % of control (dose: 18.0 mg/kg/injection, schedule: Q04DX003 (ip), vehicle: saline); 137 % of control (dose: 21.6 mg/kg/injection, schedule: Q04DX003 (ip), vehicle: saline); 130 % of control under setting [3]. In addition, the survivor count is 8 of 8 under setting [3]; 7 of 8 and 8 of 8 (dose: 50.0 mg/kg/injection, schedule: Q04DX003 (ip), vehicle: saline); 8 of 8 (dose: 60.0 mg/kg/injection, schedule: Q04DX003 (ip), vehicle: saline).

Regarding `CCN(CC)CCNc1ccc(C)c2sc3ccccc3c(=O)c12`, the T/C is, setting by setting: (dose: 75.0 mg/kg/injection, schedule: Q01DX005 (ip), vehicle: saline) 126 % of control [7 of 8 alive]; (dose: 90.0 mg/kg/injection, schedule: Q01DX005 (ip), vehicle: saline) 130 % of control; under setting [4], 133 % of control; under setting [1], 140 % of control. The survivor count by setting is: under setting [4], 8 of 8; under setting [2], 7 of 8.

For `O=c1[nH]cc(F)c(=O)[nH]1`, the T/C (dose: 100.0 mg/kg/injection, schedule: Q04DX003 (ip), vehicle: saline) was 134 % of control.

As for `COc1c(O)c2c(c3cc(C(=O)N4CCc5c4c(O)c(OC)c4[nH]c(C(=O)N6CC7CC78C6=CC(=O)c6[nH]cc(C)c68)cc54)[nH]c13)CCN2C(N)=O` (stereo not drawn), the T/C is 133 % of control (dose: 0.15 mg/kg/injection, schedule: Q04DX003 (ip), vehicle: DMSO); 136 % of control (dose: 0.25 mg/kg/injection, schedule: Q04DX003 (ip), vehicle: DMSO); 137 % of control [6 of 8 alive] (dose: 38.9 micrograms/kg/injection, schedule: Q04DX003 (ip), vehicle: saline); 141 % of control (dose: 64.8 micrograms/kg/injection, schedule: Q04DX003 (ip), vehicle: saline); 138 % of control (dose: 108.0 micrograms/kg/injection, schedule: Q04DX003 (ip), vehicle: saline); 130 % of control (dose: 180.0 micrograms/kg/injection, schedule: Q04DX003 (ip), vehicle: saline).

(Values after PubChem BioAssay AID326 (DTP/NCI, 2004).)
